The supplement of paper PMC10849652
Some of the results follow.

Protein sequences, listed by entry. Tags and fused reporters are not part of them. Lines headed by an entry give the natural chain unless they say otherwise; changes in a name come on top.
UniProt P25815: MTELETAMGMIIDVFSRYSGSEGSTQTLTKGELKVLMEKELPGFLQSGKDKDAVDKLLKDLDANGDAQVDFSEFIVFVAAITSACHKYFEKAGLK
UniProt Q0VDG4: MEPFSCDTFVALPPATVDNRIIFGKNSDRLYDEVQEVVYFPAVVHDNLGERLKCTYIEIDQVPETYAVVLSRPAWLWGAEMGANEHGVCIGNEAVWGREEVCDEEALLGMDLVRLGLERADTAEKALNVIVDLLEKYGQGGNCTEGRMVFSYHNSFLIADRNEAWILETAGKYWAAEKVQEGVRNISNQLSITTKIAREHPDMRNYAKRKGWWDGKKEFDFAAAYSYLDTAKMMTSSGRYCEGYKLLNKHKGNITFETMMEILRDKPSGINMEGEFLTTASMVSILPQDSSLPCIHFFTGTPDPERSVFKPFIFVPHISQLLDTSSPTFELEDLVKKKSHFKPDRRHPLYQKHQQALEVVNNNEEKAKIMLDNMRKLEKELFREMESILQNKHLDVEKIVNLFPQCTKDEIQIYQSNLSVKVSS
UniProt Q6NW29: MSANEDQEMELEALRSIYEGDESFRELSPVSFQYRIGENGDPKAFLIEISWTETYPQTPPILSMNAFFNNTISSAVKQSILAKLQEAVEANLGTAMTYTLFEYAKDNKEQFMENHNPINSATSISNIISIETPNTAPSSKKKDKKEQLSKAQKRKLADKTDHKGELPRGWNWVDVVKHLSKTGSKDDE
UniProt O00442: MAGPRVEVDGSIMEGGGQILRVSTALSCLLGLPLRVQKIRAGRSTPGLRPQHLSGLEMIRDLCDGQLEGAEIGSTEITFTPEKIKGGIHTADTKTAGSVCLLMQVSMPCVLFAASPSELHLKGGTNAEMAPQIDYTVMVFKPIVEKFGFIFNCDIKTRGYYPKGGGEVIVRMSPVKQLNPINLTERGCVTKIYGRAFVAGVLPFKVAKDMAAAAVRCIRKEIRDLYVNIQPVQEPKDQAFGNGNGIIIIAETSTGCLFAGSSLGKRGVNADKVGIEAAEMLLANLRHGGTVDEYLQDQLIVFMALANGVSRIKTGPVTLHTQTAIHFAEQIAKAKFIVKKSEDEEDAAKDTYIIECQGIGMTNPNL
UniProt O15126: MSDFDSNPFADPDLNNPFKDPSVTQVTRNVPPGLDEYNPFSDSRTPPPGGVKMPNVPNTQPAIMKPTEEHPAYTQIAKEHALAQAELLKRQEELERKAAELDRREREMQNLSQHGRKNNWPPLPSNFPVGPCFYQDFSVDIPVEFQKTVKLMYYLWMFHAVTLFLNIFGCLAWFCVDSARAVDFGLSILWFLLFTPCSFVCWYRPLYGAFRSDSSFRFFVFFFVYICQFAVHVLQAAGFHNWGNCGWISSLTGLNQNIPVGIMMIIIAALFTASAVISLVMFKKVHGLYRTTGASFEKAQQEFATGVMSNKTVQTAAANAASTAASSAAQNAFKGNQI
UniProt Q9BW04: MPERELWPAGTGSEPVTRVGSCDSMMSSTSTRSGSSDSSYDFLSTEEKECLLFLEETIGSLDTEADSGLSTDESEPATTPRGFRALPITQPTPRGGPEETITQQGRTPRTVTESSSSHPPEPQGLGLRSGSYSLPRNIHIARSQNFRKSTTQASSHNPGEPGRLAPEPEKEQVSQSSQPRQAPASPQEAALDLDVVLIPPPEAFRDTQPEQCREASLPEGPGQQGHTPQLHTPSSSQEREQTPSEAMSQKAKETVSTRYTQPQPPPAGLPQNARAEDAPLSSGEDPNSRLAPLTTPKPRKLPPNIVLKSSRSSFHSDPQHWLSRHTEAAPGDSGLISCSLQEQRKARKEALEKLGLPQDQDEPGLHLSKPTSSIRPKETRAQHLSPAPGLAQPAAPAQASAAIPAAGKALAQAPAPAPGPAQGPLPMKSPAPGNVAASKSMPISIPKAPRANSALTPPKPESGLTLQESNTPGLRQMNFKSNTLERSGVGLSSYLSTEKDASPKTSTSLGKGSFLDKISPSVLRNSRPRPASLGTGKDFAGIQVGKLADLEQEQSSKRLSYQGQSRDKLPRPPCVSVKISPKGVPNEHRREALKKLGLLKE
UniProt O75880: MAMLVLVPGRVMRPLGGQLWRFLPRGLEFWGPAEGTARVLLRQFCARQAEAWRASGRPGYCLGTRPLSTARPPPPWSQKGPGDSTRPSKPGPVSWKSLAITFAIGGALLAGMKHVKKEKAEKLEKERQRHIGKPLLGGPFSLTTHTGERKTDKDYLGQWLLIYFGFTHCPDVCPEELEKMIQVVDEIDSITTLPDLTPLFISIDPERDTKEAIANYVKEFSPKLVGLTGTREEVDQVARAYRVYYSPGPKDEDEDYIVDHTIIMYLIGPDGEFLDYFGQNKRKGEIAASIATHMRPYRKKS
UniProt O94855: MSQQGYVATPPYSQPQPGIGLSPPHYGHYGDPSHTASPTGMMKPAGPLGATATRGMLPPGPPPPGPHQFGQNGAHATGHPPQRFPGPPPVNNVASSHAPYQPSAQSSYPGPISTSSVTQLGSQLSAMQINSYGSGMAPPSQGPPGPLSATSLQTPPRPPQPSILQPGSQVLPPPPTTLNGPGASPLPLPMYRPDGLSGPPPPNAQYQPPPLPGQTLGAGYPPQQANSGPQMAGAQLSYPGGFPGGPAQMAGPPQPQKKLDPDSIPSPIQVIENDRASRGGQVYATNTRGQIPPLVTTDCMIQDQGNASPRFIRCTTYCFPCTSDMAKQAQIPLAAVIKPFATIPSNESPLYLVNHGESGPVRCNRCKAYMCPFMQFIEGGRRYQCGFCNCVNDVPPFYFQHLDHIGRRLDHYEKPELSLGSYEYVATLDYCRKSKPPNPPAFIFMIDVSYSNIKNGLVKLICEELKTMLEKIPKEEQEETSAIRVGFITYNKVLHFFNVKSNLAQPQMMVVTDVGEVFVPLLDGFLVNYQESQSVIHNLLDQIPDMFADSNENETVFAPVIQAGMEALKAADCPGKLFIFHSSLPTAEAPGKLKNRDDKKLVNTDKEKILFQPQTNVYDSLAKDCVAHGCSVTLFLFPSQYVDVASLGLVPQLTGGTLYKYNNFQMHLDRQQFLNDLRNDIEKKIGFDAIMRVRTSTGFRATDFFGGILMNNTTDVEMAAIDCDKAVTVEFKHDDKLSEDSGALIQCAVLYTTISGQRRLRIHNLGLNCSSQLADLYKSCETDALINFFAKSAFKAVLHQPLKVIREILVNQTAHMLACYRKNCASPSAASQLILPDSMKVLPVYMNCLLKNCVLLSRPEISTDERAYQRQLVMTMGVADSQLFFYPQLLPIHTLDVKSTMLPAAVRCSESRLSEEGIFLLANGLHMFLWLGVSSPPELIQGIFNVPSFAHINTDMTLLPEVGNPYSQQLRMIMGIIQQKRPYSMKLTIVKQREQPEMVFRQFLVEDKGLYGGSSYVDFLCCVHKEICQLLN
UniProt Q9Y6U3: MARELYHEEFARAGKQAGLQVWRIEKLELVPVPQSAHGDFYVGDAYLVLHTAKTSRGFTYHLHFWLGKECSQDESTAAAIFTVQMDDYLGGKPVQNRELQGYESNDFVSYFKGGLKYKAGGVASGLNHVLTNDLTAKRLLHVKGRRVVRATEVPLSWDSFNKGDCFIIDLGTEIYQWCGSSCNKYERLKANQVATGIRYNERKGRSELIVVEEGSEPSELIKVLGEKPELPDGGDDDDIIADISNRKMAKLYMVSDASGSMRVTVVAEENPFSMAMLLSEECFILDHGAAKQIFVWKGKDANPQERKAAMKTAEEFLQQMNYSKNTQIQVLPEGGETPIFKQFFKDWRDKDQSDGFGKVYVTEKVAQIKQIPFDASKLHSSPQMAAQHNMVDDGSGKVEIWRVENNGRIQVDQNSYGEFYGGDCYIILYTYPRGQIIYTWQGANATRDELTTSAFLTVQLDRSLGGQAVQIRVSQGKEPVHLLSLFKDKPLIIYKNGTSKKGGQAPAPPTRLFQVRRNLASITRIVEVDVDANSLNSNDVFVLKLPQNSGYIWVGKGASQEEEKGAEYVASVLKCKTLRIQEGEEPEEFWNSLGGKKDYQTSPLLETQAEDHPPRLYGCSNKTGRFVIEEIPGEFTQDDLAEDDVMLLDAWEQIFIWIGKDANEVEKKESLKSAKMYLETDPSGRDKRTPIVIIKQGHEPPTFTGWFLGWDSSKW
UniProt Q96KG9: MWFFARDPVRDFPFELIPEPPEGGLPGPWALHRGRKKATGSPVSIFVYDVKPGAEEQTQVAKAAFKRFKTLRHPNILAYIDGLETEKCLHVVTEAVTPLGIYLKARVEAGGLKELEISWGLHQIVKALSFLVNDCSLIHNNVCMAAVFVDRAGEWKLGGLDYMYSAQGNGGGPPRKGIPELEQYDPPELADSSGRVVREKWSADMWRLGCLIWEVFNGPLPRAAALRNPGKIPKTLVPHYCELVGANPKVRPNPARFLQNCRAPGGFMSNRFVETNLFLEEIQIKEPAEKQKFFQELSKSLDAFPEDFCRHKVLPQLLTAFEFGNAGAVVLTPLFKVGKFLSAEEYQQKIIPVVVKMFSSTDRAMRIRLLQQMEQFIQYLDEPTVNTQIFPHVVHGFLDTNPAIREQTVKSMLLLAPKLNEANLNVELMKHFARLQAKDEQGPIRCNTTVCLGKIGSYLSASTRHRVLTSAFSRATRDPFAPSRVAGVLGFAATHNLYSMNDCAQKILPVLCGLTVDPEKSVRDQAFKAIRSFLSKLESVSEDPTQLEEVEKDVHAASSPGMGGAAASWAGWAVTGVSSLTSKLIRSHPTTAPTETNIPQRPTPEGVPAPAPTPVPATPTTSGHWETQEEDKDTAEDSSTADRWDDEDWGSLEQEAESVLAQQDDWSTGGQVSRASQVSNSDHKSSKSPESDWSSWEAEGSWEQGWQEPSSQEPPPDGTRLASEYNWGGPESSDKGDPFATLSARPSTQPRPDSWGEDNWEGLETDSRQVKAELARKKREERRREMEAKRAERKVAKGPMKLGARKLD
UniProt Q969E2: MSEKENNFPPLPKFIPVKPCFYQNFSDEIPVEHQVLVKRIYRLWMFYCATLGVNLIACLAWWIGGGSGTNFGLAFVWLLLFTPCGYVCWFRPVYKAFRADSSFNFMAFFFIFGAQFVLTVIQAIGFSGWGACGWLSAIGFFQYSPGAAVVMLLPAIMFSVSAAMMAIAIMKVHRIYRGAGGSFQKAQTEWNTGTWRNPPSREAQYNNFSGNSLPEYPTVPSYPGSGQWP
UniProt Q9Y3Z3: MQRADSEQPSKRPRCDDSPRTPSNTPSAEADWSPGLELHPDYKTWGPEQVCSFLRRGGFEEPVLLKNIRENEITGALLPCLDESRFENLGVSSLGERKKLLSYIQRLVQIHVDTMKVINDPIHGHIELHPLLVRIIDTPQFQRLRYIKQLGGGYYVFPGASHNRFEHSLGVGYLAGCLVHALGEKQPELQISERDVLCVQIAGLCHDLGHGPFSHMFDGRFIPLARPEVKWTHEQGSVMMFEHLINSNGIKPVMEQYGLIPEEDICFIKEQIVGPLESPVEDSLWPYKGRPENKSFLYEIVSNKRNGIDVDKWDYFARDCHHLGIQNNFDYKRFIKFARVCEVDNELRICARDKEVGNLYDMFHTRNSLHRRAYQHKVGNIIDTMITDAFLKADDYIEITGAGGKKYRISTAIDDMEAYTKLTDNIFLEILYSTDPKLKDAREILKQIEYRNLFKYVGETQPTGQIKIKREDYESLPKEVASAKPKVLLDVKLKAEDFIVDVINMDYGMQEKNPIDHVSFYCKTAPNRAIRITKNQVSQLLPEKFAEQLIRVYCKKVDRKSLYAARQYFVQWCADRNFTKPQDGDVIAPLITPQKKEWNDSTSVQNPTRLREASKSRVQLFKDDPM
UniProt O14828: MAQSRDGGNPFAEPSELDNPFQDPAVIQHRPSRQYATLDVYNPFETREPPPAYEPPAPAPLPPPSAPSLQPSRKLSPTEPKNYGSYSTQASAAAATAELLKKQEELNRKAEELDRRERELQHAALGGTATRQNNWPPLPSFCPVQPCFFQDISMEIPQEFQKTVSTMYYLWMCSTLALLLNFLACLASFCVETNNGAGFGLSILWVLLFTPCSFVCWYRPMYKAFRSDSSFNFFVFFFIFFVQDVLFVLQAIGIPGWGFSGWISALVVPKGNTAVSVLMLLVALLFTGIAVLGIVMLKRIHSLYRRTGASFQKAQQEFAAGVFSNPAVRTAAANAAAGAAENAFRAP
UniProt Q9NR31: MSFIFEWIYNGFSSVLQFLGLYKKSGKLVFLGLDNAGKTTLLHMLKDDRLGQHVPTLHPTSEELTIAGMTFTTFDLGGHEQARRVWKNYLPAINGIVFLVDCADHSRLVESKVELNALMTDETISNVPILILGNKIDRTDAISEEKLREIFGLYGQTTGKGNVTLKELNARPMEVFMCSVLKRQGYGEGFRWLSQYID
UniProt P55735: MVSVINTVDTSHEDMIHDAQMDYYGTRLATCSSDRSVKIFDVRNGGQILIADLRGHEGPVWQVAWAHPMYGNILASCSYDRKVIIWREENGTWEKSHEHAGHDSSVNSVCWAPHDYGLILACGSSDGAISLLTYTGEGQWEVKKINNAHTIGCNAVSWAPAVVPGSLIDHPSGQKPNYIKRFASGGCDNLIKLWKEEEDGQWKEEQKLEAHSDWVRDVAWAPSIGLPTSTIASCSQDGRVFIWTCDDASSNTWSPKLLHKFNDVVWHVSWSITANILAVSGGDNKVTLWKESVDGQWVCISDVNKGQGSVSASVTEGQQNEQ

How the values were obtained:
Test in all cases: log2 fold change, soluble protein after heating vs DMSO (PISA); higher = thermal stabilisation; K562 cells, 10 uM, 30 min; active = over 0.2 and 3.5 SD of the protein, either way, in both replicates (recomputed)
[1] = compound: CS(=O)(=O)c1ccc(-c2cnc(N)c(C(=O)Nc3ccccc3)n2)cc1
In short: (§1)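 Values are thermal stability changes relative to control samples and are taken from duplicates. They are stated as log2 fold changes. Before quantification by TMTpro 16plex LC-MS/MS with equalised channel sums, K562 cells at 2×10^6 cells/mL were treated with 10 μM compound for 30 min, heated in aliquots for 3 min across 48°C-58°C, pooled, extracted in PBS with 0.5% NP-40 at 4°C, and centrifuged at 21,000xg for 90 min to give the soluble supernatant.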

crizotinib = compound: C[C@@H](Oc1cc(-c2cnn(C3CCNCC3)c2)cnc1N)c1c(Cl)ccc(F)c1Cl [crizotinib]
In short: as §1

[2] = compound: C[C@@H]1COCCN1C2=NC(=NC(=C2)C3(CC3)S(=O)(=O)C)C4=C5C=CNC5=CC=C4
In short: as §1

[3] = compound: C[C@H](C1=CC=C(C=C1)C(=O)NC2=C3C=CNC3=NC=C2)N
In short: as §1

duvelisib = compound: C[C@H](Nc1ncnc2nc[nH]c12)c1cc2cccc(Cl)c2c(=O)n1-c1ccccc1 [duvelisib]
In short: as §1

gandotinib = compound: Cc1cc(Nc2cc(CN3CCOCC3)c3nc(C)c(Cc4ccc(Cl)cc4F)n3n2)n[nH]1 [gandotinib]
In short: as §1

tozasertib = compound: Cc1cc(Nc2cc(N3CCN(C)CC3)nc(Sc3ccc(NC(=O)C4CC4)cc3)n2)n[nH]1 [tozasertib]
In short: as §1

[4] = compound: Cc1cc(SCc2sc(-c3ccc(C(F)(F)F)cc3)nc2C)ccc1OCC(=O)O
In short: as §1

doramapimod = compound: Cc1ccc(-n2nc(C(C)(C)C)cc2NC(=O)Nc2ccc(OCCN3CCOCC3)c3ccccc23)cc1 [doramapimod]
In short: as §1

ispinesib = compound: Cc1ccc(C(=O)N(CCCN)[C@@H](c2nc3cc(Cl)ccc3c(=O)n2Cc2ccccc2)C(C)C)cc1 [ispinesib]
In short: as §1

Measured: log2 fold change

SCAP (UniProt Q12770)
inactive: [1] -0.012 | crizotinib 0.045 | [2] 0.049 | [3] -0.032 | duvelisib 0.04 | gandotinib 0.03 | tozasertib -0.095 | [4] 0.016 | doramapimod 0.016 | ispinesib -0.083

S100P (UniProt P25815)
inactive: [1] -0.048 | crizotinib 0.096 | [2] 0.059 | [3] -0.136 | duvelisib 0.338 | gandotinib 0.227 | tozasertib 0.018 | [4] -0.05 | doramapimod -0.092 | ispinesib 0.334

RTCB (UniProt Q9Y3I0)
inactive: [1] -0.007 | crizotinib -0.018 | [2] -0.065 | [3] 0.025 | duvelisib -0.027 | gandotinib 0.012 | tozasertib 0.011 | [4] -0.008 | doramapimod 0.04 | ispinesib 0.001

SCRN3 (UniProt Q0VDG4)
inactive: [1] 0.017 | crizotinib 0.032 | [2] 0.009 | [3] -0.051 | duvelisib 0.001 | gandotinib 0.034 | tozasertib 0.046 | [4] 0.021 | doramapimod 0.001 | ispinesib -0.031

SEC11A isoform 3 (UniProt P67812)
inactive: [1] -0.012 | crizotinib -0.006 | [2] -0.012 | [3] 0.005 | duvelisib 0.036 | gandotinib -0.061 | tozasertib 0.006 | [4] -0.003 | doramapimod 0.001 | ispinesib -0.026

SART1 (UniProt O43290)
inactive: [1] -0.101 | crizotinib -0.079 | [2] -0.646 | [3] 0.265 | duvelisib -0.214 | gandotinib 0.201 | tozasertib 0.005 | [4] 0.024 | doramapimod 0.296 | ispinesib -0.213

RSBN1L (UniProt Q6PCB5)
inactive: [1] -0.002 | crizotinib -0.047 | [2] -0.396 | [3] 0.265 | duvelisib -0.18 | gandotinib 0.21 | tozasertib 0.075 | [4] 0.019 | doramapimod 0.149 | ispinesib -0.056

RWDD4 (UniProt Q6NW29)
inactive: [1] 0.053 | crizotinib 0.011 | [2] 0.015 | [3] 0.015 | duvelisib 0.062 | gandotinib -0.039 | tozasertib 0.05 | [4] 0.016 | doramapimod 0.016 | ispinesib -0.143

S100A6 (UniProt P06703)
inactive: [1] -0.078 | crizotinib 0.156 | [2] 0.132 | [3] -0.016 | duvelisib 0.134 | gandotinib 0.039 | tozasertib 0.025 | [4] 0.019 | doramapimod 0.152 | ispinesib 0.06

SBF1 isoform 4 (UniProt O95248)
inactive: [1] -0.044 | crizotinib -0.159 | [2] -0.131 | [3] 0.149 | duvelisib -0.188 | gandotinib -0.005 | tozasertib -0.067 | [4] 0.083 | doramapimod 0.026 | ispinesib -0.213

RTCA (UniProt O00442)
inactive: [1] 0.012 | crizotinib -0.013 | [2] 0.041 | [3] -0.001 | duvelisib -0.013 | gandotinib -0.085 | tozasertib -0.044 | [4] 0.062 | doramapimod 0.014 | ispinesib -0.028

RSBN1 (UniProt Q5VWQ0)
inactive: [1] 0.033 | crizotinib 0.002 | [2] -0.329 | [3] 0.318 | duvelisib -0.27 | gandotinib 0.255 | tozasertib 0.048 | [4] -0.015 | doramapimod 0.286 | ispinesib -0.055

SCAMP1 (UniProt O15126)
inactive: [1] 0.027 | crizotinib -0.042 | [2] -0.076 | [3] -0.05 | duvelisib -0.008 | gandotinib 0.023 | tozasertib -0.064 | [4] -0.04 | doramapimod 0.01 | ispinesib -0.159

RRP15 (UniProt Q9Y3B9)
inactive: [1] -0.094 | crizotinib 0.085 | [2] -0.001 | [3] -0.057 | duvelisib -0.077 | gandotinib 0.117 | tozasertib 0.026 | [4] -0.039 | doramapimod 0.013 | ispinesib 0.071

Retrieved one by one from above, two records:
SCRN3 (UniProt Q0VDG4)
inactive: [1] 0.017 | crizotinib 0.032 | [2] 0.009 | [3] -0.051 | duvelisib 0.001 | gandotinib 0.034 | tozasertib 0.046 | [4] 0.021 | doramapimod 0.001 | ispinesib -0.031

SEC11A isoform 3 (UniProt P67812)
inactive: [1] -0.012 | crizotinib -0.006 | [2] -0.012 | [3] 0.005 | duvelisib 0.036 | gandotinib -0.061 | tozasertib 0.006 | [4] -0.003 | doramapimod 0.001 | ispinesib -0.026

Going on with the list.

SARG (UniProt Q9BW04)
inactive: [1] 0.063 | crizotinib 0.006 | [2] 0.041 | [3] 0.047 | duvelisib 0.027 | gandotinib 0.017 | tozasertib -0.041 | [4] -0.027 | doramapimod 0.004 | ispinesib 0.005

RTN4 isoform 2 (UniProt Q9NQC3)
inactive: [1] 0.05 | crizotinib 0.055 | [2] 0.121 | [3] 0 | duvelisib 0.116 | gandotinib -0.001 | tozasertib -0.015 | [4] -0.016 | doramapimod 0.057 | ispinesib -0.043

SARNP (UniProt P82979)
inactive: [1] -0.011 | crizotinib 0.066 | [2] -0.079 | [3] 0.047 | duvelisib 0.006 | gandotinib 0.047 | tozasertib -0.037 | [4] -0.111 | doramapimod -0.068 | ispinesib -0.053

SCO1 (UniProt O75880)
inactive: [1] 0.033 | crizotinib -0.113 | [2] 0.068 | [3] -0.052 | duvelisib 0.026 | gandotinib -0.008 | tozasertib -0.02 | [4] 0.032 | doramapimod 0.009 | ispinesib -0.136

SEC24D isoform 2 (UniProt O94855)
inactive: [1] -0.012 | crizotinib 0.001 | [2] 0.06 | [3] -0.009 | duvelisib 0.007 | gandotinib -0.073 | tozasertib -0.014 | [4] 0.054 | doramapimod -0.042 | ispinesib 0.077

SCIN (UniProt Q9Y6U3)
inactive: [1] 0.133 | crizotinib -0.066 | [2] -0.003 | [3] 0.025 | duvelisib -0.015 | gandotinib 0.005 | tozasertib 0.123 | [4] 0.139 | doramapimod 0.002 | ispinesib -0.168

SDSL (UniProt Q96GA7)
inactive: [1] -0.025 | crizotinib 0.004 | [2] 0.012 | [3] -0.058 | duvelisib 0.043 | gandotinib 0.076 | tozasertib -0.019 | [4] 0.035 | doramapimod 0.004 | ispinesib 0.006

SAR1B (UniProt Q9Y6B6)
inactive: [1] 0.078 | crizotinib 0.053 | [2] 0.166 | [3] -0.028 | duvelisib 0.033 | gandotinib -0.09 | tozasertib 0.017 | [4] 0.027 | doramapimod -0.028 | ispinesib 0.099

SCYL1 (UniProt Q96KG9)
inactive: [1] -0.005 | crizotinib -0.028 | [2] 0.036 | [3] -0.016 | duvelisib -0.013 | gandotinib -0.083 | tozasertib -0.009 | [4] 0.086 | doramapimod -0.006 | ispinesib 0.028

SCAMP4 (UniProt Q969E2)
inactive: [1] 0.03 | crizotinib 0.046 | [2] 0.102 | [3] -0.03 | duvelisib 0.055 | gandotinib 0.134 | tozasertib -0.006 | [4] -0.041 | doramapimod -0.035 | ispinesib -0.018

SAMHD1 (UniProt Q9Y3Z3)
inactive: [1] 0 | crizotinib 0.002 | [2] 0.022 | [3] -0.026 | duvelisib 0.036 | gandotinib -0.104 | tozasertib -0.035 | [4] -0.025 | doramapimod 0.009 | ispinesib -0.02

SCARB2 (UniProt Q14108)
inactive: [1] 0.032 | crizotinib -0.078 | [2] -0.035 | [3] -0.091 | duvelisib 0.066 | gandotinib 0.027 | tozasertib -0.003 | [4] -0.093 | doramapimod 0.004 | ispinesib -0.004

SDF4 (UniProt Q9BRK5)
inactive: [1] -0.001 | crizotinib 0.126 | [2] 0.108 | [3] -0.031 | duvelisib 0.017 | gandotinib 0.042 | tozasertib 0.004 | [4] -0.012 | doramapimod 0.006 | ispinesib 0.077

SCAMP3 (UniProt O14828)
inactive: [1] 0.006 | crizotinib -0.03 | [2] 0.096 | [3] -0.003 | duvelisib 0.007 | gandotinib 0.025 | tozasertib -0.021 | [4] -0.035 | doramapimod -0.048 | ispinesib -0.107

SAR1A (UniProt Q9NR31)
inactive: [1] 0.061 | crizotinib 0.012 | [2] -0.023 | [3] -0.004 | duvelisib 0.023 | gandotinib -0.024 | tozasertib -0.024 | [4] -0.022 | doramapimod -0.12 | ispinesib 0.236

SEC13 isoform 3 (UniProt P55735)
inactive: [1] 0.022 | crizotinib -0.014 | [2] -0.021 | [3] -0.045 | duvelisib -0.02 | gandotinib -0.054 | tozasertib 0.02 | [4] 0.007 | doramapimod -0.068 | ispinesib 0.045
